Source: paper PMC7347206, “Characterization of a long-term mouse primary liver 3D tissue model recapitulating innate-immune responses and drug-induced liver toxicity” (PLoS ONE, 2020)

Tested on: mouse primary hepatocyte 3D liver spheroids
Conditions: 8 days repeated vs 48 h single
Description: To avoid increased evaporation, a humidified lid (Labcyte, USA), filled with PBS, was placed on each plate. […] From day 4 on, 50% of the medium was replaced daily with serum-free maintenance medium (WME with Cell Maintenance Supplement Pack (Thermo Fisher Scientific, USA)).
Compounds were obtained from Sigma-Aldrich if not otherwise stated. […] Toxicity treatment started on day 7 with re-dosing every second day. On the first day of exposure, 50 μl of the cell culture media was removed and 50 μl of fresh cell culture media containing the compound solution was added to the well to achieve the desired concentration. For redosing, 50 μl of cell culture media was replaced with fresh compound-containing cell culture media. […] The dose-response curves were plotted, and IC50 values were calculated using Graph-Pad Prism.
Drug-induced liver injury (DILI) is a major concern in drug development, which often cannot be predicted in vitro due to inherent limitations of 2D hepatocyte cultures, including short-term viability and decreased functionality. […] The spheroids either experienced a single treatment and were analyzed after 48 hours (Fig 3A–3G, 48 h), or they were repeatedly treated every 2 days and analyzed at day 8 (Fig 3A–3G, 8 days). In both cases, ATP content was used as a viability marker.

Compound: O=P1(N(CCCl)CCCl)NCCCO1 (stereo not drawn) [Cyclophosphamide]
- IC50 lower upon repeated treatments as compared to single treatments: 10 fold

Compound: O=C(O)Cc1ccccc1Nc1c(Cl)cccc1Cl [Diclofenac]
- IC50 lower upon repeated treatments as compared to single treatments: 10 fold

Compound: CN(C)[C@@H]1C(O)=C(C(N)=O)C(=O)[C@@]2(O)C(O)=C3C(=O)c4c(O)cccc4[C@@](C)(O)[C@H]3C[C@@H]12 [Tetracycline]
- IC50 lower upon repeated treatments as compared to single treatments: 10 fold
